In paper PMC10605128:
Results are given in words; binding and its absence hold for the method and conditions named. Binding can be weak; no strength is given. For some of these results: Sequences can lack the tags named with a protein. Each block holds one binder with its values, some of them ahead of it.

Experiments:
[1] = biological target: proline-arginine dipeptide repeat protein PR50, yeast two-hybrid fusion; experiment: two-hybrid; Matchmaker GAL4 assay of pairs: PR50 in pGBKT7 (AH109), full-length NOVA1 or its fragments in pGADT7 (Y187); also with the vectors exchanged
[2] = biological target: proline-arginine dipeptide repeat protein PR50, yeast two-hybrid fusion; experiment: two-hybrid; Matchmaker GAL4 library screen: PR50 in pGBKT7 (AH109) as bait, human brain cDNA library in pGADT7 (Y187) as prey, mating; blue diploids on SD/-Ade/-His/-Leu/-Trp/X-alpha-gal

B3: NOVA1 positive clone 42-2 (residues 144-507) from the human brain cDNA library (domain or fragment, UniProt P51513-4 144-507)
chain: PDRIKQTLPSSPTTTKSSPSDPMTTSRANQVKIIVPNSTAGLIIGKGGATVKAVMEQSGAWVQLSQKPDGINLQERVVTVSGEPEQNRKAVELIIQKIQEDPQSGSCLNISYANVTGPVANSNPTGSPYANTAEVLPTAAAAAGLLGHANLAGVAAFPAVLSGFTGNDLVAITSALNTLASYGYNLNTLGLGLSQAAATGALAAAAASANPAAAAANLLATYASEASASGSTAGGTAGTFALGSLAAATAATNGYFGAASPLAASAILGTEKSTDGSKDVVEIAVPENLVGAILGKGGKTLVEYQELTGARIQISKKGEFVPGTRNRKVTITGTPAATQAAQYLITQRITYEQGVRAANPQKVG
binding [2]: binds

B4: NOVA1 fragment N3 (amino acids 341-507), yeast two-hybrid fusion (domain or fragment, UniProt P51513-4 341-507)
chain: ATGALAAAAASANPAAAAANLLATYASEASASGSTAGGTAGTFALGSLAAATAATNGYFGAASPLAASAILGTEKSTDGSKDVVEIAVPENLVGAILGKGGKTLVEYQELTGARIQISKKGEFVPGTRNRKVTITGTPAATQAAQYLITQRITYEQGVRAANPQKVG
binding [1]: binds

Next, values leading:

binding [1]: no binding
B1: NOVA1 fragment N2 (amino acids 170-340), yeast two-hybrid fusion (domain or fragment, UniProt P51513-4 170-340)
chain: RANQVKIIVPNSTAGLIIGKGGATVKAVMEQSGAWVQLSQKPDGINLQERVVTVSGEPEQNRKAVELIIQKIQEDPQSGSCLNISYANVTGPVANSNPTGSPYANTAEVLPTAAAAAGLLGHANLAGVAAFPAVLSGFTGNDLVAITSALNTLASYGYNLNTLGLGLSQAA

binding [1]: no binding
B2: NOVA1 fragment N1 (amino acids 1-169), yeast two-hybrid fusion (domain or fragment, UniProt P51513-4 1-169)
chain: MMAAAPIQQNGTHTGVPIDLDPPDSRKRPLEAPPEAGSTKRTNTGEDGQYFLKVLIPSYAAGSIIGKGGQTIVQLQKETGATIKLSKSKDFYPGTTERVCLIQGTVEALNAVHGFIAEKIREMPQNVAKTEPVSILQPQTTVNPDRIKQTLPSSPTTTKSSPSDPMTTS
